# In the supplement of paper PMC8728848:
# The list shows a part of the results.
# B1: SHCBP1-GST (Homo sapiens), Q8NEM2 (protein)
# chain: MADGSLTGGGLEAAAMAPERMGWAVEQELASLEKGLFQDEDSCSDCSYRDKPGSSLQSFMPEGKTFFPEIFQTNQLLFYERFRAYQDYILADCKASEVQEFTAEFLEKVLEPSGWRAVWHTNVFKVLVEITDVDFAALKAVVRLAEPYLCDSQVSTFTMECMKELLDLKEHRLPLQELWVVFDDSGVFDQTALAIEHVRFFYQNIWRSWDEEEEDEYDYFVRCVEPRLRLHYDILEDRVPSGLIVDYHNLLSQCEESYRKFLNLRSSLSNCNSDSEQENISMVEGLKLYSEMEQLKQKLKLIENPLLRYVFGYQKNSNIQAKGVRSSGQKITHVVSSTMMAGLLRSLLTDRLCQEPGEEEREIQFHSDPLSAINACFEGDTVIVCPGHYVVHGTFSIADSIELEGYGLPDDIVIEKRGKGDTFVDCTGADIKISGIKFVQHDAVEGILIVHRGKTTLENCVLQCETTGVTVRTSAEFLMKNSDLYGAKGAGIEIYPGSQCTLSDNGIHHCKEGILIKDFLDEHYDIPKISMVNNIIHNNEGYGVVLVKPTIFSDLQENAEDGTEENKALKIQTSGEPDVAERVDLEELIECATGKMELCARTDPSEQVEGNCEIVNELIAASTQKGQIKKKRLSELGITQADDNLMSQEMFVGIVGNQFKWNGKGSFGTFLF
# Legend:
# Test in all cases: glycan array binding signal (z-score within array); higher = stronger binding
# Conditions in all cases: glycan notation: IUPAC condensed, linker removed
# Gal(a1-3)Gal(b1-4)GlcNAc = molecular target: Gal(a1-3)Gal(b1-4)GlcNAc
# Outline: (§1)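 Glycan array data came from 3228 arrays in the Consortium for Functional Glycomics database, and only arrays with an available protein sequence were kept. Glycan names were put into IUPAC-condensed notation, and columns mapping to the same glycan were averaged. The binding signal is a within-array Z-score, averaged across arrays of one protein sequence run at different concentrations or buffers and across linkers. A negative Z-score can be read as non-binding.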
# [1] = molecular target: Gal(a1-3)Gal(b1-4)GlcNAc(b1-2)Man
# Outline: as §1
# [2] = molecular target: Gal(a1-3)Gal(b1-4)GlcNAc(b1-2)Man(a1-3)[Gal(a1-3)Gal(b1-4)GlcNAc(b1-2)Man(a1-6)]Man(b1-4)GlcNAc(b1-4)GlcNAc
# Outline: as §1
# [3] = molecular target: Gal(a1-3)Gal(b1-4)GlcNAc(b1-3)GalNAc
# Outline: as §1
# [4] = molecular target: Gal(a1-3)Gal(b1-4)GlcNAc(b1-6)GalNAc
# Outline: as §1
# [5] = molecular target: Gal(a1-3)Gal(b1-4)[Fuc(a1-3)]GlcNAc
# Outline: as §1
# [6] = molecular target: Gal(a1-3)Gal(b1-4)[Fuc(a1-3)]GlcNAc(b1-2)Man(a1-3)[Gal(a1-3)Gal(b1-4)[Fuc(a1-3)]GlcNAc(b1-2)Man(a1-6)]Man(b1-4)GlcNAc(b1-4)GlcNAc
# Outline: as §1
# Gal(a1-3)GalNAc = molecular target: Gal(a1-3)GalNAc
# Outline: as §1
# [7] = molecular target: Gal(a1-3)[Gal(a1-4)]Gal(b1-4)GlcNAc
# Outline: as §1
# [8] = molecular target: Gal(a1-4)Gal(b1-3)GlcNAc(b1-2)Man(a1-3)[Gal(a1-4)Gal(b1-3)GlcNAc(b1-2)Man(a1-6)]Man(b1-4)GlcNAc(b1-4)GlcNAc
# Outline: as §1
# Gal(a1-4)Gal(b1-4)Glc = molecular target: Gal(a1-4)Gal(b1-4)Glc
# Outline: as §1
# Gal(a1-4)Gal(b1-4)GlcNAc = molecular target: Gal(a1-4)Gal(b1-4)GlcNAc
# Outline: as §1
# [9] = molecular target: Gal(a1-4)Gal(b1-4)GlcNAc(b1-2)Man(a1-3)[Gal(a1-4)Gal(b1-4)GlcNAc(b1-2)Man(a1-6)]Man(b1-4)GlcNAc(b1-4)GlcNAc
# Outline: as §1
# [10] = molecular target: Gal(a1-4)Gal(b1-4)GlcNAc(b1-3)Gal(b1-4)Glc
# Outline: as §1
# Gal(a1-4)GlcNAc = molecular target: Gal(a1-4)GlcNAc
# Outline: as §1
# Gal(a1-6)Glc = molecular target: Gal(a1-6)Glc
# Outline: as §1
# Gal(b1-2)Gal = molecular target: Gal(b1-2)Gal
# Outline: as §1
# Gal(b1-3)Gal = molecular target: Gal(b1-3)Gal
# Outline: as §1
# Gal(b1-3)Gal(b1-4)GlcNAc = molecular target: Gal(b1-3)Gal(b1-4)GlcNAc
# Outline: as §1
# Gal(b1-3)GalNAc = molecular target: Gal(b1-3)GalNAc
# Outline: as §1
# [11] = molecular target: Gal(b1-3)GalNAc(a1-3)[Fuc(a1-2)]Gal(b1-4)Glc
# Outline: as §1
# [12] = molecular target: Gal(b1-3)GalNAc(a1-3)[Fuc(a1-2)]Gal(b1-4)GlcNAc
# Outline: as §1
# Gal(b1-3)GalNAc(b1-3)Gal = molecular target: Gal(b1-3)GalNAc(b1-3)Gal
# Outline: as §1
# [13] = molecular target: Gal(b1-3)GalNAc(b1-3)Gal(a1-4)Gal(b1-4)Glc
# Outline: as §1
# [14] = molecular target: Gal(b1-3)GalNAc(b1-4)Gal(b1-4)Glc
# Outline: as §1
# [15] = molecular target: Gal(b1-3)GalNAc(b1-4)[Neu5Ac(a2-3)]Gal(b1-4)Glc
# Outline: as §1
# Gal(b1-3)GlcNAc = molecular target: Gal(b1-3)GlcNAc
# Outline: as §1
# [16] = molecular target: Gal(b1-3)GlcNAc(a1-3)Gal(b1-4)GlcNAc
# Outline: as §1
# [17] = molecular target: Gal(b1-3)GlcNAc(a1-6)Gal(b1-4)GlcNAc
# Outline: as §1
# Gal(b1-3)GlcNAc(b1-2)Man = molecular target: Gal(b1-3)GlcNAc(b1-2)Man
# Outline: as §1
binder,measurement,setting,value
B1,glycan array binding signal (z-score),Gal(a1-3)Gal(b1-4)GlcNAc,-0.281
same,glycan array binding signal (z-score),[1],0.428
same,glycan array binding signal (z-score),[2],1.56
same,glycan array binding signal (z-score),[3],0.565
same,glycan array binding signal (z-score),[4],0.024
same,glycan array binding signal (z-score),[5],1
same,glycan array binding signal (z-score),[6],0.289
same,glycan array binding signal (z-score),Gal(a1-3)GalNAc,-0.405
same,glycan array binding signal (z-score),[7],0.622
same,glycan array binding signal (z-score),[8],4.1
same,glycan array binding signal (z-score),Gal(a1-4)Gal(b1-4)Glc,0.391
same,glycan array binding signal (z-score),Gal(a1-4)Gal(b1-4)GlcNAc,0.212
same,glycan array binding signal (z-score),[9],0.12
same,glycan array binding signal (z-score),[10],-0.576
same,glycan array binding signal (z-score),Gal(a1-4)GlcNAc,-0.477
same,glycan array binding signal (z-score),Gal(a1-6)Glc,0.63
same,glycan array binding signal (z-score),Gal(b1-2)Gal,0.384
same,glycan array binding signal (z-score),Gal(b1-3)Gal,0.702
same,glycan array binding signal (z-score),Gal(b1-3)Gal(b1-4)GlcNAc,-0.188
same,glycan array binding signal (z-score),Gal(b1-3)GalNAc,-0.251
same,glycan array binding signal (z-score),[11],-0.147
same,glycan array binding signal (z-score),[12],-1.17
same,glycan array binding signal (z-score),Gal(b1-3)GalNAc(b1-3)Gal,-0.407
same,glycan array binding signal (z-score),[13],0.692
same,glycan array binding signal (z-score),[14],-1.04
same,glycan array binding signal (z-score),[15],-0.127
same,glycan array binding signal (z-score),Gal(b1-3)GlcNAc,-0.473
same,glycan array binding signal (z-score),[16],-0.242
same,glycan array binding signal (z-score),[17],-0.335
same,glycan array binding signal (z-score),Gal(b1-3)GlcNAc(b1-2)Man,1.46

# Shown tab-delimited: part of the list above
binder	measurement	setting	value
B1	glycan array binding signal (z-score)	Gal(b1-3)Gal(b1-4)GlcNAc	-0.188
same	glycan array binding signal (z-score)	Gal(b1-3)GalNAc	-0.251
